Target: enzyme de conversion de l'angiotensine (ECA) (Homo sapiens, UniProt P12821)
Test: biochemical
Conditions: substrate HHL 5 mM, 37°C, 30 minutes, sodium borate buffer pH 8,3, detection at 228 nm
Experimental: Brièvement, cette méthode repose sur l'hydrolyse du substrat Hippuryl-L-Histidyl-L-Leucine (HHL) par l'ECA pour produire de l'acide hippurique (HA) et de l'Histydil-Leucine. Après incubation à 37°C pendant 30 minutes dans du tampon borate de sodium pH 8,3, la réaction est arrêtée par addition de HCI. La séparation du substrat HHL et du produit HA est réalisé par chromatographie liquide haute pression en phase inversée (RP-HPLC) sur une colonne C18 (Kinetex). L'élution se fait par un mélange d'eau (75% v/v) et d'acétonitrile (25% V/V).
La comparaison entre la concentration de HA produite pour chaque concentration d'échantillon avec celle obtenue sans addition de peptide permet la détermination de l'IC50.
A titre de témoin positif, le captopril est également testé en parallèle de l'hydrolysat, des fractions et des peptides. Le témoin négatif est le substrat HHL seul, sans ECA, dilué dans du tampon borate pH 8,3. L'échantillon est le peptide, la fraction ou l'hydrolysat total à tester.
Le pourcentage d'inhibition de l'ECA est calculé selon la formule suivante : Pourcentage d'inhibition ECA (%) = (ASCHA ([…])−ASCHA (Echantillon))/(ASCHA ([…])−ASCHA (HHL)) × 100 [formula]

Amino acid sequences for entries named in this document (tags omitted). Residues count along the entry.
UniProt P12821, 30-1306: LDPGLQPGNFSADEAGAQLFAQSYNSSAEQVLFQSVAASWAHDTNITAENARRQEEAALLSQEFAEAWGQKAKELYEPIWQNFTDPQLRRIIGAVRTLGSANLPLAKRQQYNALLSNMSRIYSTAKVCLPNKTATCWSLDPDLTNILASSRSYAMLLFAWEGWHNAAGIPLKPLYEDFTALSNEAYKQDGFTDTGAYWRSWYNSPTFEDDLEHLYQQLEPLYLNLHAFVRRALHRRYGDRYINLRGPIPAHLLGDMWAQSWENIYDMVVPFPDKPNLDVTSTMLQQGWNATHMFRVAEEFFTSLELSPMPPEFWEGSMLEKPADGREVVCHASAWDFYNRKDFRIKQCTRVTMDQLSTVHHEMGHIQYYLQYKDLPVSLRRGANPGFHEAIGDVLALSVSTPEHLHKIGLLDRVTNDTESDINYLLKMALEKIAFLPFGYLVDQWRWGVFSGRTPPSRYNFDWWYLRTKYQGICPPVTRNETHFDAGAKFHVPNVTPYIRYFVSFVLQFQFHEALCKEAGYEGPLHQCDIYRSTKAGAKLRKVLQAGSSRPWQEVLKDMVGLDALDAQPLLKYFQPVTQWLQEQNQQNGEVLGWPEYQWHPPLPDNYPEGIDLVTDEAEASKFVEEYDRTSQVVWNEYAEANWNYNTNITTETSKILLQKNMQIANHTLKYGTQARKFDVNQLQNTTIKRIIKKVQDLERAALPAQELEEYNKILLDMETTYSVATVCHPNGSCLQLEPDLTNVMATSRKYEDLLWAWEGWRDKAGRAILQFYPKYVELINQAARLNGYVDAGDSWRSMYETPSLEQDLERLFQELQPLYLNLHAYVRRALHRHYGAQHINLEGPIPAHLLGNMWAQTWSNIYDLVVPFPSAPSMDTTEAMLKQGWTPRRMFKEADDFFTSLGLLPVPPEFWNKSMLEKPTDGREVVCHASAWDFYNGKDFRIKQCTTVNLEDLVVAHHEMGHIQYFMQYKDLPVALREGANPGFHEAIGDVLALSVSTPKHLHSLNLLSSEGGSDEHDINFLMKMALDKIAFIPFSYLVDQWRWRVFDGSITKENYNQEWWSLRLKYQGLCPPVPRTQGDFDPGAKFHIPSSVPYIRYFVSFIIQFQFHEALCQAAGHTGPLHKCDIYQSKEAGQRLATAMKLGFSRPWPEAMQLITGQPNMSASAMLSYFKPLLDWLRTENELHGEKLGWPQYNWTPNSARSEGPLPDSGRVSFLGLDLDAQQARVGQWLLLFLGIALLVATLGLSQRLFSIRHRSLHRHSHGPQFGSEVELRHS

N[C@@H](Cc1ccc(O)cc1)C(=O)NCC(=O)O [YG, Tyrosine-Glycine]
IC50: 303 µM

Reference: patent publication EP3171885B1, “PEPTIDE HYDROLYSATE OF SNAILS, PEPTIDE FRACTIONS, PRODUCTION METHOD, USE AND COMPOSITIONS FOR INHIBITING THE ANGIOTENSIN CONVERTING ENZYME” (Drevet, Pascal, priority 2014, dated 2016)
